Data taken from paper PMC5674221, “Harnessing fungal nonribosomal cyclodepsipeptide synthetases for mechanistic insights and tailored engineering” (Chemical Science, 2017).

Tested on: Enterococcus faecalis ST:33700 (vancomycin-resistent)
Format: cell-based
Conditions: JMRC-No. ST:33700; Supplementary Table 5

O=C(O)c1cn(C2CC2)c2cc(N3CCNCC3)c(F)cc2c1=O [Ciprofloxacin, ciprofloxacin] was tested, and the “Inhibition zone diameter, Enterococcus faecalis (vancomycin-resistent)” value was 16F.
